Source: publication PMC9669022
No constants are given. Whether binding was seen depends on the method and setting. Binding seen in cells or lysates may run through a third protein. A yes stands for co-enrichment or nearness to the bait. Other partners may have been found.

Target: Pbkinesin-8B-GFP (P. berghei)
Experiment: affinity purification with mass spectrometry; GFP-Trap immunoprecipitation of Pbkinesin-8B-GFP from lysate of P. berghei gametocytes activated for 6 min; LC-MS/MS; two biological replicates, GFP-only control

B1: calcium-dependent protein kinase 4 (protein, UniProt P62345 1-528)
chain: MGQEMSTQSDMQNENQKGNKRNLKGSQGKNGLKERSTSISKEIVKNSFNNSKLRPGMFIQNSNVVFNEQYKGIKILGKGSFGEVILSKDKHTGHEYAIKVISKKHVKRKTDKQSLLREVELLKMLDHINIMKLYEFFEDNNYYYLVSDVYSGGELFDEIISRKRFYEVDAARIIKQVLSGITYMHKNNVVHRDLKPENILLETKNKEDMIIKIIDFGLSTHFEYSKKMKDKIGTAYYIAPDVLHGTYDEKCDIWSCGVILYILLSGCPPFNGSNEYDILKKVETGKYTFDLPQFKKISDKAKDLIKKMLMYTSAVRISARDALEHEWIRLMTSKDNVNIDIPSLELSITNIKQFQSTQKLAQAALLYMGSKLTTIDETKELTKIFKKMDKNGDGQLDRNELIIGYKELLKLKGDDTTDLDNAAIEVEVDQILSSIDLDQNGYIEYSEFLTVAIDRKLLLSTERLEKAFKLFDKDGSGKISANELAQLFGLGDVSSDCWKTVLKEVDQNNDGEIDFKEFRDMLIKLCNY
For B1, which binding is on record?
The binding was “binds”.
